Substitutions are numbered along the chain they refer to. These are yes or no findings as the source states them, for the method shown. Binding seen in cells or lysates may run through a third protein. Some results given as binding are weak or reduced against the parent protein; the word gives no strength. For part of these data: Tags and fused reporters may be left off the sequences shown.
Experiments:
Experiment in all cases: co-IP
[1] = biological target: T1, full length NLRP1 p.P1214R (NAIAD mutation) (human) (UniProt Q9C000)
T1 sequence: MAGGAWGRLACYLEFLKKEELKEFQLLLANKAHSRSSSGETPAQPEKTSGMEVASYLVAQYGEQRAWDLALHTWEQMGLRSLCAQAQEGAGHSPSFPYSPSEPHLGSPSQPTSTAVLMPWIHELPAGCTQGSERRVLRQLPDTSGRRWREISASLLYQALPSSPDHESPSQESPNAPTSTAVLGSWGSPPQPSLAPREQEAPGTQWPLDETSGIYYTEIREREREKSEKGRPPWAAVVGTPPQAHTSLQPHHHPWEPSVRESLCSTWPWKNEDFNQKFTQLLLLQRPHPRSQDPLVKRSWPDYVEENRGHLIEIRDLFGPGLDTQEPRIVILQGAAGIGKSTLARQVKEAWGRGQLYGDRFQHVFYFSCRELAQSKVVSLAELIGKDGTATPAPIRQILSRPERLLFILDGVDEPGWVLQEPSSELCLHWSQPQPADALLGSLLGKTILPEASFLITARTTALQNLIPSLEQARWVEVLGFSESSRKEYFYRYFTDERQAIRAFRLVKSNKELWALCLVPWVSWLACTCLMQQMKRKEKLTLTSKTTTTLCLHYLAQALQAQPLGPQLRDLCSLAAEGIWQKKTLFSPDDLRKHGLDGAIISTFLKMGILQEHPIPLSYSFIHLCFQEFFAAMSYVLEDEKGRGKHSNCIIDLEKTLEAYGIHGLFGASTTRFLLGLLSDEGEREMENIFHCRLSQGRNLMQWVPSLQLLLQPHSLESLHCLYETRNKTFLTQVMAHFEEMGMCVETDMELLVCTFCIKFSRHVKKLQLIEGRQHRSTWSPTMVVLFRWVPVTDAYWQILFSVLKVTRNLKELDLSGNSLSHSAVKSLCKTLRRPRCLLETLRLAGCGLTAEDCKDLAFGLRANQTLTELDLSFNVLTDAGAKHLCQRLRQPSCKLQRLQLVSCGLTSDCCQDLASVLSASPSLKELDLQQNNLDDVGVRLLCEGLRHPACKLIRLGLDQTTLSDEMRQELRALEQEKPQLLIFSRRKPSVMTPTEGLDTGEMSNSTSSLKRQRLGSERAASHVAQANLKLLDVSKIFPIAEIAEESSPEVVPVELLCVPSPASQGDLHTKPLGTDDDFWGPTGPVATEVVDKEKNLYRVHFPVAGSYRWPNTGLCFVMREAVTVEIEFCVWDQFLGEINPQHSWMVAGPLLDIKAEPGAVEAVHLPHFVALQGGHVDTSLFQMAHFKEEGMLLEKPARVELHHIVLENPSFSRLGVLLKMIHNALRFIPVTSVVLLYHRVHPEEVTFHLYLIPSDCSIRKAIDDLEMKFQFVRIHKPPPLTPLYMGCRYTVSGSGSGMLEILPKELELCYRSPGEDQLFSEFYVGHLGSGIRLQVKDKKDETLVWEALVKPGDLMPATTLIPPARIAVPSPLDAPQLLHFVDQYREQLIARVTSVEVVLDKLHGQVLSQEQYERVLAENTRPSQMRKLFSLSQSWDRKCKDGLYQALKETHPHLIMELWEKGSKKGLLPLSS

Amino acid sequences for entries named in this document (tags omitted). A change or cut given only in a name is not applied to a line headed by its entry. Chains listed by the source or under a name are the forms on record and can include a tag or linker.
UniProt Q96P20: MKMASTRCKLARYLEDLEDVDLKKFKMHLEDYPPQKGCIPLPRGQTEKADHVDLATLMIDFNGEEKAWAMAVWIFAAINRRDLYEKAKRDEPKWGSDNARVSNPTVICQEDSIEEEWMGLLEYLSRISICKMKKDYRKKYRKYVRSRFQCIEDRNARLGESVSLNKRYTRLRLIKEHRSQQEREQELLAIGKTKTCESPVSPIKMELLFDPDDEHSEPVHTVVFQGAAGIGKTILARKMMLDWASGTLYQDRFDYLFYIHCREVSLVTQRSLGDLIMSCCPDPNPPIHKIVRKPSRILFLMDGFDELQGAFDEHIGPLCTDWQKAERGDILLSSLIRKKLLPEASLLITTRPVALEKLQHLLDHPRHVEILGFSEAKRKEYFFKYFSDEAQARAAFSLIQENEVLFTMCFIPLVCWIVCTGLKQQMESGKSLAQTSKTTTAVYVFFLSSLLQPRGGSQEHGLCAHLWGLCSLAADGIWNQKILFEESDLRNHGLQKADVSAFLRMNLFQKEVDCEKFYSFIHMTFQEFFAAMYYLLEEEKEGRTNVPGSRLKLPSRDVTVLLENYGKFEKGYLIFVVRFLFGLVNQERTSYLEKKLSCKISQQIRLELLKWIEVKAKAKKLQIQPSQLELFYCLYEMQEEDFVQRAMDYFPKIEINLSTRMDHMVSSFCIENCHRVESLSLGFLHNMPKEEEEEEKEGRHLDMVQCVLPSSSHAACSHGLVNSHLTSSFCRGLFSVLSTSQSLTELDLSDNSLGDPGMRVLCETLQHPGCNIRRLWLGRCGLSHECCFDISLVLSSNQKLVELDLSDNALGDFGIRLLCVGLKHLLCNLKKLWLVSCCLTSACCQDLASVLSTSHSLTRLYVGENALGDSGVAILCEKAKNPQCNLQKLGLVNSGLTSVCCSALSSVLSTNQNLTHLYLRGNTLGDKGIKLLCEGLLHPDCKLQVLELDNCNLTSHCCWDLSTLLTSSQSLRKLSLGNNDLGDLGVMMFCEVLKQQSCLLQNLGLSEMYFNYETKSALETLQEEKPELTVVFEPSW
DPP9L (long splice isoform of DPP9), transfected (Q86TI2-2, form named): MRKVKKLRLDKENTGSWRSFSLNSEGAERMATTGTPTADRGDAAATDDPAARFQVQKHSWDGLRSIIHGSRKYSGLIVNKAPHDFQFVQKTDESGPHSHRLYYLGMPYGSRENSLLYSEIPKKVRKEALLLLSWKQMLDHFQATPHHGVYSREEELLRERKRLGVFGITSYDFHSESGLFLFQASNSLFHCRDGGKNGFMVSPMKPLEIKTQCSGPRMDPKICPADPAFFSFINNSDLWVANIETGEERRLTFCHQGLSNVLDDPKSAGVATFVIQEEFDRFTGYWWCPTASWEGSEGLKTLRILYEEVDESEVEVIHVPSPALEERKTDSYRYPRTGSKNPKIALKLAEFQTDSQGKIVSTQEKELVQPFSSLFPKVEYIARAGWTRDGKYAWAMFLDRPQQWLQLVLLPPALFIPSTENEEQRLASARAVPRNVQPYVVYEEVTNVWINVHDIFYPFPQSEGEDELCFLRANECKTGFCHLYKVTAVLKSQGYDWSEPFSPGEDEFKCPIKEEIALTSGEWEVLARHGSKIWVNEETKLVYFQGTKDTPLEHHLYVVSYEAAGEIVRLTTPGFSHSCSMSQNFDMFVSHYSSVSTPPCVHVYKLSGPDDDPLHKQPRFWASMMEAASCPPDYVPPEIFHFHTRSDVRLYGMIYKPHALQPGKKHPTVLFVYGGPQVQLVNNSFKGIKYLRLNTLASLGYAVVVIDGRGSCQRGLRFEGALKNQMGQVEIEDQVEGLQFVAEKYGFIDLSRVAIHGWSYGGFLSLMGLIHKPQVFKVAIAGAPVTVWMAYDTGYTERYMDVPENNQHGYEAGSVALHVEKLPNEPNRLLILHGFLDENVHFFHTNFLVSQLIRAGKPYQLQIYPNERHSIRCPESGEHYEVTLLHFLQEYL

[2] = biological target: T2, FLAG-tagged full-length NLRP1 (human) (UniProt Q9C000)
T2 sequence: T1 sequence with R1214P

[3] = biological target: T3, NLRP1-FIIND (a.a. 986-1373) (human) (UniProt Q9C000)
T3 sequence: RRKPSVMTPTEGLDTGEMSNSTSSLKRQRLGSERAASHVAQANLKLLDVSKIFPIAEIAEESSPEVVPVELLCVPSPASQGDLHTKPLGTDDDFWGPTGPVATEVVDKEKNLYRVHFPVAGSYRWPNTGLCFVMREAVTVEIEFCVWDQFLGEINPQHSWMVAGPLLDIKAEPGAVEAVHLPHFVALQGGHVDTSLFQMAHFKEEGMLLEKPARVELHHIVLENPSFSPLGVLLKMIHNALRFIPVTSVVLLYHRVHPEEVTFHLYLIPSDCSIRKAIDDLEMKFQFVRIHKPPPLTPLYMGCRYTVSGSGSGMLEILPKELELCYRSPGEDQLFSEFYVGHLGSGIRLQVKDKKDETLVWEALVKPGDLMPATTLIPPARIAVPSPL

NLRP3 = NLRP3 (UniProt Q96P20)
[4] = biological target: T4, NLRP1 a.a. 1213-1373 (carboxy-terminal fragment of the FIIND domain) (human) (UniProt Q9C000)
T4 sequence: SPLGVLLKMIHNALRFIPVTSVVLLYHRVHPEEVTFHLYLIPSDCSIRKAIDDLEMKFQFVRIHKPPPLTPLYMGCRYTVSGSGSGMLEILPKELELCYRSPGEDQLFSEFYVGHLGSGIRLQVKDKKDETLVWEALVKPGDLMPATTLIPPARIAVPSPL

| binding [1] | binding [2] | binding [3] | binding (NLRP3) | binding [4] | Substance |
| --- | --- | --- | --- | --- | --- |
| no binding | binds | binds | no binding | no binding | endogenous DPP9 (dipeptidyl peptidase 9) (from UniProt Q86TI2-2 1-892) (enzyme) |
| – | binds | – | – | – | DPP9L (long splice isoform of DPP9), transfected (from UniProt Q86TI2-2 1-892) (enzyme) |
